We go through five molecules from publication PMC12995475.

By UniProt entry, the sequences of proteins in these tests, tags left out.
UniProt P33993: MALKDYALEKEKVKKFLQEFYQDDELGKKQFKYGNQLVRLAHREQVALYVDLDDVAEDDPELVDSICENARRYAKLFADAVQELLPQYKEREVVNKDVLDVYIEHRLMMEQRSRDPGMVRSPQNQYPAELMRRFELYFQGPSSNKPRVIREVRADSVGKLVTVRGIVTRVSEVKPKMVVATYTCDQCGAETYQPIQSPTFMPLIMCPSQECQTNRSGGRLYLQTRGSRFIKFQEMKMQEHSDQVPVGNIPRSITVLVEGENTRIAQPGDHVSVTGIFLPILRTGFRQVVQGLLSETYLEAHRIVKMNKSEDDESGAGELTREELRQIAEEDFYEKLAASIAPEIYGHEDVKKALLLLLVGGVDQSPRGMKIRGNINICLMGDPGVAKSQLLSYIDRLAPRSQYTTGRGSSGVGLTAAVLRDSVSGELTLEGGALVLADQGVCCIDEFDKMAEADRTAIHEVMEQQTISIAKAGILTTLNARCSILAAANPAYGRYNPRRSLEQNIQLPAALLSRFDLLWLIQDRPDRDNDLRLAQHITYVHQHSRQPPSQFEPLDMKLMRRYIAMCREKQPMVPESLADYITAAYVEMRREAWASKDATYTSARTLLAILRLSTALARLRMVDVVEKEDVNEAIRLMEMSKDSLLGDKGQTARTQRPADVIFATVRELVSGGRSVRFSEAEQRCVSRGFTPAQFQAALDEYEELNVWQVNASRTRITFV
UniProt P49736: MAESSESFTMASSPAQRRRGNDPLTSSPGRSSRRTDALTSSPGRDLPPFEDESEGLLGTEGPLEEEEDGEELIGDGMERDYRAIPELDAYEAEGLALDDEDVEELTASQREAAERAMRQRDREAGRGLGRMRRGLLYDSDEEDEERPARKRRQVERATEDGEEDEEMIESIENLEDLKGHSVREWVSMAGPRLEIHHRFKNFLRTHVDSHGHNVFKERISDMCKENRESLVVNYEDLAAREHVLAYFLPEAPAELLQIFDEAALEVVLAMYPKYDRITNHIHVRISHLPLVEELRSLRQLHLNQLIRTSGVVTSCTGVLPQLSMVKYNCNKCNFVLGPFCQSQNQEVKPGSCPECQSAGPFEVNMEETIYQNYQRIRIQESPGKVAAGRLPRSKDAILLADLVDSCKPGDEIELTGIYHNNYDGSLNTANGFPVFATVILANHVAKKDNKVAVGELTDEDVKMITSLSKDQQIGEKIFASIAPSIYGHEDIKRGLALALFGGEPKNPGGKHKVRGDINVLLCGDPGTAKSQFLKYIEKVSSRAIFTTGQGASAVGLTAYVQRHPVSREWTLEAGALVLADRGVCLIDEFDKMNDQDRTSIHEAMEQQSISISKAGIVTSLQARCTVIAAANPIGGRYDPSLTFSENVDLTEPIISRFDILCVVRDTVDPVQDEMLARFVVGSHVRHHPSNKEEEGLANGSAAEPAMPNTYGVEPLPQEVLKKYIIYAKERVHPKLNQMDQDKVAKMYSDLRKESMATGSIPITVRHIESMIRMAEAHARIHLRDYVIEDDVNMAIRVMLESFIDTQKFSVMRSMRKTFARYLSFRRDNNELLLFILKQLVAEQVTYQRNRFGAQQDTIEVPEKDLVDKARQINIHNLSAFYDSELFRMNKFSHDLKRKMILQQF

Experiment [1] concerns the target T1, Ribonucleotide reductase M1 (regulatory subunit R1), endogenous (human (endogenous in H23, A549, HEK293)) (UniProt P23921).
T1 sequence: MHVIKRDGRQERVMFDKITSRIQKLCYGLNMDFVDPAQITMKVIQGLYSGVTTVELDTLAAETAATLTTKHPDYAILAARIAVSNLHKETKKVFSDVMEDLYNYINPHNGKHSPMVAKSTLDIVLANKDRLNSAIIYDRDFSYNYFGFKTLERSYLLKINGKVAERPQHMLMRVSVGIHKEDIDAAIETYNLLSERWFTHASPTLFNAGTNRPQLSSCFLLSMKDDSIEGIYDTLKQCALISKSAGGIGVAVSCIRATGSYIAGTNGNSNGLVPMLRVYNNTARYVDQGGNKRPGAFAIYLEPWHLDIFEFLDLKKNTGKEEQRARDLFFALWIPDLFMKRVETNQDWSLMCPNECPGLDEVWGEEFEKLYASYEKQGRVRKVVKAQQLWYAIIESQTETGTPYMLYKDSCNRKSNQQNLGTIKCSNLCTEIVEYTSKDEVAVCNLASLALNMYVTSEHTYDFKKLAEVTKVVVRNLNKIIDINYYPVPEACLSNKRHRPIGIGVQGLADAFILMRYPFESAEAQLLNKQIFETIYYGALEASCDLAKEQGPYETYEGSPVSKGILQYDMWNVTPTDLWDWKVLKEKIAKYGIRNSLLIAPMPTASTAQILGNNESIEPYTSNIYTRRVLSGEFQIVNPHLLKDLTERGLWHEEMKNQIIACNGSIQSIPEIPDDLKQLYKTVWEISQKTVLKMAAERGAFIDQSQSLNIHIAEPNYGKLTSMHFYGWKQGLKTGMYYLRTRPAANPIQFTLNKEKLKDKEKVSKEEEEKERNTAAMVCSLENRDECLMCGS
Briefly: co-IP; endogenous R1 immunoprecipitated (antibodies to RRM1 or control IgG) from H23, A549 and HEK293 whole cell lysates, immunoblotted for MCM2-7; also done in doxycycline-inducible R2 overexpressing (OER2) and control (ORF) cells. For orientation: A western blot detects proteins with antibodies after separation by electrophoresis.

Experiment [2] has as its target T2, p53R2 (human (endogenous in H23, A549, HEK293)) (UniProt Q7LG56).
T2 sequence: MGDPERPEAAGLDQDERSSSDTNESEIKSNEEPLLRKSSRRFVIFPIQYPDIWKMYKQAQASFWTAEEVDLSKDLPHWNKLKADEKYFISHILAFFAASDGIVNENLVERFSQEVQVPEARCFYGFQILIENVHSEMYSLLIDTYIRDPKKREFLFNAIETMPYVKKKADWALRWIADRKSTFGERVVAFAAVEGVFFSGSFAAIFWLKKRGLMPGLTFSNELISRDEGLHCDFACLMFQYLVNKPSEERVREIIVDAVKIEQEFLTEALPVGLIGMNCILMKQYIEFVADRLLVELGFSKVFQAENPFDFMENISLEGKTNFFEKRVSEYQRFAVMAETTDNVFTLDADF
Briefly: co-IP; "the same technology" as the R1 immunoprecipitation, for R2 or p53R2 and the six MCMs.

The target in experiment [3] is T3, Ribonucleotide reductase catalytic subunit R2 (human (endogenous in H23, A549, HEK293)) (UniProt P31350).
T3 sequence: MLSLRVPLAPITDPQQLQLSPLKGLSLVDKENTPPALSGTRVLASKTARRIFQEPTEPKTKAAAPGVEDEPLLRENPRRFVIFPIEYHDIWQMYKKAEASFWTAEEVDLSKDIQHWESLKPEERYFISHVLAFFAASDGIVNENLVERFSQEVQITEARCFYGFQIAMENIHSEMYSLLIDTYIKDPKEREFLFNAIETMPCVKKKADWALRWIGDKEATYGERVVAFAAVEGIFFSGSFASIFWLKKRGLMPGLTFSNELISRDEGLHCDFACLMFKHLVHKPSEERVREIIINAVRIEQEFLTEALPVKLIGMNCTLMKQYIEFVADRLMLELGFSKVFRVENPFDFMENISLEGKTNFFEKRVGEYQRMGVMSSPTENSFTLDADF
Described as above.

The target of experiment [4] is MCM7, endogenous (human (endogenous in H23, A549, HEK293)) (UniProt P33993). Briefly: co-IP; reverse immunoprecipitation of each catalytic MCM (4/6/7), R1 detected; MCM7 immunoprecipitation also done in R1 overexpressing (OER1) cells.
For experiment [5], the target named is T4, MCM4, endogenous (human (endogenous in H23, A549, HEK293)) (UniProt P33991).
T4 sequence: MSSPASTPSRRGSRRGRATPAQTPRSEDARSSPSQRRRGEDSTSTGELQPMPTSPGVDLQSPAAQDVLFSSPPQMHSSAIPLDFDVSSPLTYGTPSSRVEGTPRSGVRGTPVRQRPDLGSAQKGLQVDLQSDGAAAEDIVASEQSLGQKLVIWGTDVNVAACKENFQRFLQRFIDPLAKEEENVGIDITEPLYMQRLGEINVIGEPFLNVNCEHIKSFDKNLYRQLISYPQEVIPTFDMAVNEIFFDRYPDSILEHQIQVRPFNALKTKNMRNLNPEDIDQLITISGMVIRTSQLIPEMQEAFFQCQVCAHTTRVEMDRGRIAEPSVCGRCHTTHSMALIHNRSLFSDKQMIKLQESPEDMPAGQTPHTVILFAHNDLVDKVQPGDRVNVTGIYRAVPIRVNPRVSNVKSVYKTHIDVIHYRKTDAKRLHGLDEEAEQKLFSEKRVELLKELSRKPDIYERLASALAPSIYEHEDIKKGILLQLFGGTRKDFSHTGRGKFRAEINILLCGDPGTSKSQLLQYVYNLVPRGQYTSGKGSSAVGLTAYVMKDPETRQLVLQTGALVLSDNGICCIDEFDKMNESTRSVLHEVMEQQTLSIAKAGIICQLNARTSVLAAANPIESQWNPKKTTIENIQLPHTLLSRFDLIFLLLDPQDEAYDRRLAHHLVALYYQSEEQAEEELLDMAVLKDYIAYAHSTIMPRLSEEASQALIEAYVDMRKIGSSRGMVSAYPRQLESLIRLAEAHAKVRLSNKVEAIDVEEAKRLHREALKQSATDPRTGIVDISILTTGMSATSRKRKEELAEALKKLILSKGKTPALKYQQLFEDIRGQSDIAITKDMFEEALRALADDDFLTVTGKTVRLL
The experiment is described as above.

Results are given in words; binding and its absence hold for the method and conditions named. In cells and extracts the contact can be indirect. Some entries that bind do so weakly or less than the wild type.

Consider “MCM2, endogenous (from UniProt P49736 1-904)”, for which the binding result in experiment [1], in experiment [2] and in experiment [3] was “no binding” throughout.

B1: MCM3, endogenous (protein, UniProt P25205 1-808)
chain: MAGTVVLDDVELREAQRDYLDFLDDEEDQGIYQSKVRELISDNQYRLIVNVNDLRRKNEKRANRLLNNAFEELVAFQRALKDFVASIDATYAKQYEEFYVGLEGSFGSKHVSPRTLTSCFLSCVVCVEGIVTKCSLVRPKVVRSVHYCPATKKTIERRYSDLTTLVAFPSSSVYPTKDEENNPLETEYGLSVYKDHQTITIQEMPEKAPAGQLPRSVDVILDDDLVDKAKPGDRVQVVGTYRCLPGKKGGYTSGTFRTVLIACNVKQMSKDAQPSFSAEDIAKIKKFSKTRSKDIFDQLAKSLAPSIHGHDYVKKAILCLLLGGVERDLENGSHIRGDINILLIGDPSVAKSQLLRYVLCTAPRAIPTTGRGSSGVGLTAAVTTDQETGERRLEAGAMVLADRGVVCIDEFDKMSDMDRTAIHEVMEQGRVTIAKAGIHARLNARCSVLAAANPVYGRYDQYKTPMENIGLQDSLLSRFDLLFIMLDQMDPEQDREISDHVLRMHRYRAPGEQDGDAMPLGSAVDILATDDPNFSQEDQQDTQIYEKHDNLLHGTKKKKEKMVSAAFMKKYIHVAKIIKPVLTQESATYIAEEYSRLRSQDSMSSDTARTSPVTARTLETLIRLATAHAKARMSKTVDLQDAEEAVELVQYAYFKKVLEKEKKRKKRSEDESETEDEEEKSQEDQEQKRKRRKTRQPDAKDGDSYDPYDFSDTEEEMPQVHTPKTADSQETKESQKVELSESRLKAFKVALLDVFREAHAQSIGMNRLTESINRDSEEPFSSVEIQAALSKMQDDNQVMVSEGIIFLI
Turning to B1, the binding result in experiment [1], in experiment [2] and in experiment [3] was “no binding” throughout.

B2: Ribonucleotide reductase M1 (regulatory subunit R1), endogenous (protein, UniProt P23921 1-792)
chain: T1 sequence
For B2, the binding result in experiment [4] and in experiment [5] was “binds” each time.

B3: MCM5, endogenous (protein, UniProt P33992 1-734)
chain: MSGFDDPGIFYSDSFGGDAQADEGQARKSQLQRRFKEFLRQYRVGTDRTGFTFKYRDELKRHYNLGEYWIEVEMEDLASFDEDLADYLYKQPAEHLQLLEEAAKEVADEVTRPRPSGEEVLQDIQVMLKSDASPSSIRSLKSDMMSHLVKIPGIIIAASAVRAKATRISIQCRSCRNTLTNIAMRPGLEGYALPRKCNTDQAGRPKCPLDPYFIMPDKCKCVDFQTLKLQELPDAVPHGEMPRHMQLYCDRYLCDKVVPGNRVTIMGIYSIKKFGLTTSRGRDRVGVGIRSSYIRVLGIQVDTDGSGRSFAGAVSPQEEEEFRRLAALPNVYEVISKSIAPSIFGGTDMKKAIACLLFGGSRKRLPDGLTRRGDINLLMLGDPGTAKSQLLKFVEKCSPIGVYTSGKGSSAAGLTASVMRDPSSRNFIMEGGAMVLADGGVVCIDEFDKMREDDRVAIHEAMEQQTISIAKAGITTTLNSRCSVLAAANSVFGRWDETKGEDNIDFMPTILSRFDMIFIVKDEHNEERDVMLAKHVITLHVSALTQTQAVEGEIDLAKLKKFIAYCRVKCGPRLSAEAAEKLKNRYIIMRSGARQHERDSDRRSSIPITVRQLEAIVRIAEALSKMKLQPFATEADVEEALRLFQVSTLDAALSGTLSGVEGFTSQEDQEMLSRIEKQLKRRFAIGSQVSEHSIIKDFTKQKYPEHAIHKVLQLMLRRGEIQHRMQRKVLYRLK
In the case of B3, the binding entry in experiment [1], in experiment [2] and in experiment [3] was “no binding” in each case.

B4: MCM6, endogenous (protein, UniProt Q14566 1-821)
chain: MDLAAAAEPGAGSQHLEVRDEVAEKCQKLFLDFLEEFQSSDGEIKYLQLAEELIRPERNTLVVSFVDLEQFNQQLSTTIQEEFYRVYPYLCRALKTFVKDRKEIPLAKDFYVAFQDLPTRHKIRELTSSRIGLLTRISGQVVRTHPVHPELVSGTFLCLDCQTVIRDVEQQFKYTQPNICRNPVCANRRRFLLDTNKSRFVDFQKVRIQETQAELPRGSIPRSLEVILRAEAVESAQAGDKCDFTGTLIVVPDVSKLSTPGARAETNSRVSGVDGYETEGIRGLRALGVRDLSYRLVFLACCVAPTNPRFGGKELRDEEQTAESIKNQMTVKEWEKVFEMSQDKNLYHNLCTSLFPTIHGNDEVKRGVLLMLFGGVPKTTGEGTSLRGDINVCIVGDPSTAKSQFLKHVEEFSPRAVYTSGKASSAAGLTAAVVRDEESHEFVIEAGALMLADNGVCCIDEFDKMDVRDQVAIHEAMEQQTISITKAGVKATLNARTSILAAANPISGHYDRSKSLKQNINLSAPIMSRFDLFFILVDECNEVTDYAIARRIVDLHSRIEESIDRVYSLDDIRRYLLFARQFKPKISKESEDFIVEQYKHLRQRDGSGVTKSSWRITVRQLESMIRLSEAMARMHCCDEVQPKHVKEAFRLLNKSIIRVETPDVNLDQEEEIQMEVDEGAGGINGHADSPAPVNGINGYNEDINQESAPKASLRLGFSEYCRISNLIVLHLRKVEEEEDESALKRSELVNWYLKEIESEIDSEEELINKKRIIEKVIHRLTHYDHVLIELTQAGLKGSTEGSESYEEDPYLVVNPNYLLED
Take B4: the binding entry in experiment [2] and in experiment [3] was “no binding” each time.
